# Publication PMC2801614
# Tested on: alphaCTD (C-terminal domain of RNA polymerase alpha subunit) + Spx wild-type
# Test: EMSA
# Details: EMSA: 20 mM Tris-HCl pH 7.8, 50 mM NaCl, 5 mM MgCl2, 10% glycerol, 5 uM each protein unless stated, room temperature (10 min preincubation, 15 min with probe), recombinant protein
Sequence,binding result (supershift less abundant than with wild-type trxB),"binding result (5 uM each, no DTT, supershifted ternary complex)","binding result (with DTT, ternary complex not formed)"
TAATCGTGTTGAACAAAAAAATAACGTATCACCATG (double strand) [trxB (-56 to -21) G-44A G-33A],binds more weakly,–,–
TAATCGTGTTGAGCAAAAAAATAGCGTATCACCATG (double strand) [trxB promoter (-56 to -21)],–,binds,no binding

# Negatives hold for the conditions tested. A weaker result is weaker than the reference pair of the same experiment. The exact form of at least one protein or probe is not confirmed.
